Data source: PubChem BioAssay AID1224826 (NIAID, 2016)
This is an unselected part of about 17,000 reagents. About 1,110 of all reagents (6.6%) count as active. 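Active means lowered or raised reporter signal; replicate intensities are raw and not normalised per plate.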 No sequences are given here.

- Test: 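Regulators of Tlr4 signalling leading to Tnf-alpha expression in macrophages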 (primary screen)
- System: RAW264.7 G9 macrophages from mouse bearing reporters for p65 (GFP) and the Tnf promoter (mCherry)
- Reagent: siRNA pool against mouse genes, 100 nM
- Time to read-out: 16 h of LPS stimulation, after 2 days of siRNA transfection
- Conditions: bacterial lipopolysaccharide (Salmonella minnesota R595), 10 ng/ml
- Read-out: 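Imaged Tnf reporter mCherry in nuclei, minus background, normalised per plate to the median and expressed as robust z-scores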
- Direction: Tnf reporter robust z-score: higher = stronger Tnf promoter reporter signal after LPS; Tnf reporter intensity: higher = stronger Tnf promoter reporter signal
- Call rule: 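a well counts as active at a score of -1.3 or below (Tlr4 knock-down control median) or above 3 (raised signal); controls and wells holding fewer than 50 cells are excluded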
- Meaning of the calls: active = Tnf reporter clearly lowered or raised; inactive = no clear change in Tnf reporter

gene,Tnf reporter robust z-score,fewer than 50 cells in well,"Tnf reporter intensity, replicate 1","Tnf reporter intensity, replicate 2",call
Cacna1s,-1.38,enough cells in well,79.5,83.9,active
Sema6b,0.87,enough cells in well,377,265,inactive
Kcnj9,-0.23,enough cells in well,206,261,inactive
Zfp830,,fewer than 50 cells per well; well left out of calls,84.5,57.2,inactive
Mob2,,fewer than 50 cells per well; well left out of calls,143,20.8,inactive
St18,0.47,enough cells in well,125,92.1,inactive
Sqle,-0.33,enough cells in well,262,178,inactive
Slx4ip,,fewer than 50 cells per well; well left out of calls,112,52.1,inactive
Mrpl47,,fewer than 50 cells per well; well left out of calls,178,101,inactive
Inppl1,-1.37,enough cells in well,148,66.5,active
Cpe,-0.95,enough cells in well,180,118,inactive
Fgf20,-0.17,enough cells in well,263,203,inactive
Pcsk7,0.3,enough cells in well,280,190,inactive
Syngr4,1.04,enough cells in well,225,68.4,inactive
Spock1,0.58,enough cells in well,121,118,inactive
Rbpms,0.27,enough cells in well,153,126,inactive
Trem5,1.8,enough cells in well,283,310,inactive
4933421I07Rik,-0.63,enough cells in well,110,116,inactive
Gas1,-0.64,enough cells in well,206,180,inactive
Or1j19,-0.45,enough cells in well,170,90.6,inactive
Snx5,0.02,enough cells in well,273,223,inactive
Bora,0.15,enough cells in well,192,196,inactive
Cyria,-0.95,enough cells in well,110,136,inactive
Gng8,2.55,enough cells in well,400,343,inactive
